Assay results from patent US20260248734A1, “COMPOSITIONS AND METHODS FOR TREATING METABOLIC DISEASES/DISORDERS” (priority 2023, published 2026).
For some assays here: At least one structure is not confirmed: it was looked up by name or label, or the drawing left a doubt. Some entries share one result that the patent states for a list of compounds.

Assays:
[1] = intraperitoneally injected, high fat diet-fed mice; cited from earlier work
[2] = In vivo obesity prevention in high fat diet fed C57BL/6J mice; conditions: repeated doses within eight weeks of the study

Q: With C=C[C@@]1(C)CC(=O)[C@]2(O)[C@@]3(C)[C@@H](O)CCC(C)(C)[C@@H]3[C@H](O)[C@H](OC(C)=O)[C@@]2(C)O1 [FSK, (13R)-1α,6β,9α-Trihydroxy-11-oxo-8α,13-epoxylabd-14-en-7β-yl acetate] as the compound, how does the “glucose metabolism and adipocytes size” value [1] read?
A: improvement

Q: What about the weight increase [2] of the same compound?
A: 30-35%
